Test results: US9840535B2, “Method of recovering peptide and method of detecting peptide” (SYSMEX CORPORATION, priority 2014, dated 2017)

What was measured:
[1] = system: mixture of serum and peptide; test: Peptide recovery from diluted human serum with added amino acids; conditions: TMR-ACTH partial peptide, 160° C., without additives = 1
[2] = system: complex of peptide and protein in blood; test: Peptide recovery from diluted whole blood with added amino acids, hydrothermal treatment, SDS-PAGE (fluorescence imaging, silver staining); conditions: for Purification degree: TMR-ACTH partial peptide, 160° C., without additives = 1; for numerical value of the recovery rate×the purification degree compared to the case of not adding any of the amino acids: concentrations of Table 1, 160° C.
[3] = Hydrothermal reaction of lysozyme with glycine, SDS-PAGE band intensity; conditions: lysozyme 10 mg/mL, glycine 1 M, hydrothermal reaction as Example 1
[4] = system: complex of peptide and protein in blood; test: Recovery of peptides of various isoelectric points from diluted whole blood with glycine, fluorescence spectrum; conditions: 160° C.; for recovered amount of peptide (recovery rate×purification degree) relative to the amount when not adding amino acids: glycine 1500 mM; for Purification degree: glycine added, 1500 mM, not added = 1
protein in blood = test: Comparative Example 1: peptide recovery from serum with basic amino acids; conditions: 5 mM, 2 mM or 0.5 mM; human serum, as Example 4
[5] = system: complex of peptide and protein in blood; conditions: for Purification degree: whole blood, ACTH partial peptide, 160° C., without additives = 1
[6] = system: mixture of serum and peptide; test: Peptide recovery from diluted human serum with asparagine at various heating temperatures; conditions: Asn 150 mM, without amino acid at 160° C. = 1

N[C@@H](CC(=O)O)C(=O)O [Aspartic acid, aspartic acid]
Purification degree ([1]; 5 mM): 1.98
Purification degree ([1]; 7 mM): 2.47
Purification degree ([1]; 8 mM): 2.27
Purification degree ([1]; 10 mM): 0.73

N[C@@H](Cc1c[nH]c2ccccc12)C(=O)O [Trp, L-tryptophan]
Purification degree ([2]; 50 mM): 1.2
numerical value of the recovery rate×the purification degree compared to the case of not adding any of the amino acids [2]: increased

NC(=O)CC[C@H](N)C(=O)O [Gln, L-glutamine]
Purification degree ([2]; 128 mM): 1.28
numerical value of the recovery rate×the purification degree compared to the case of not adding any of the amino acids [2]: increased

CC[C@H](C)[C@H](N)C(=O)O [Ile, L-isoleucine]
Purification degree ([2]; 150 mM): 1.36
numerical value of the recovery rate×the purification degree compared to the case of not adding any of the amino acids [2]: increased

CC(C)C[C@H](N)C(=O)O [Leucine, leucine]
Purification degree ([1]; 100 mM): 1.27
Purification degree ([1]; 150 mM): 1.33

lysozyme: hen egg-white lysozyme hydrochloride having 129 residues, about 15 kDa
SDS-PAGE peak at a position of 15 kDa after hydrothermal reaction compared to without hydrothermal treatment [3]: decreased greatly
state of lysozyme after hydrothermal reaction (peaks at 3.5 to 10 kDa and less than 3.5 kDa) [3]: fragmented

BNP: BNP (brain natriuretic peptide) labeled with TMR
recovered amount of peptide (recovery rate×purification degree) relative to the amount when not adding amino acids [4]: 11.0 times
Purification degree [4]: 3.09

NCCCC[C@H](N)C(=O)O [Lys, L-lysine]
aggregation of the protein in blood (protein in blood): did not aggregate
recovery of peptides (protein in blood): could not be recovered
Purification degree ([2]; 500 mM): 0.68
numerical value of the recovery rate×the purification degree compared to the case of not adding any of the amino acids [2]: not observed

C[N+](C)(C)CC(=O)[O-] [TMG, trimethylglycine]
Purification degree ([2]; 500 mM): 0.94
numerical value of the recovery rate×the purification degree compared to the case of not adding any of the amino acids [2]: not observed

C[C@H](N)C(=O)O [Ala, L-alanine]
Purification degree ([2]; 500 mM): 2.04
numerical value of the recovery rate×the purification degree compared to the case of not adding any of the amino acids [2]: increased

polyglycine [(Gly)n]
Purification degree ([2]; 0.05% (w/v)): 0.98
numerical value of the recovery rate×the purification degree compared to the case of not adding any of the amino acids [2]: not observed

N[C@@H](CS)C(=O)O [Cysteine, cysteine]
Purification degree ([1]; 20 mM): 1.59
Purification degree ([1]; 50 mM): 1.67
Purification degree ([1]; 100 mM): 1.24
Purification degree ([1]; 500 mM): 0.90

C[C@@H](O)[C@H](N)C(=O)O [Thr, L-threonine]
Purification degree ([2]; 500 mM): 2.46
numerical value of the recovery rate×the purification degree compared to the case of not adding any of the amino acids [2]: increased

NCC(=O)O [Gly, glycine]
recovered amount of peptide (recovery rate×purification degree) relative to the amount when not adding amino acids ([5]; final concentration of 10 mM): 1.43 times
recovered amount of peptide (recovery rate×purification degree) relative to the amount when not adding amino acids ([5]; final concentration of 100 mM): 5.45 times
recovered amount of peptide (recovery rate×purification degree) relative to the amount when not adding amino acids ([5]; final concentration of 500 mM): 9.12 times
recovered amount of peptide (recovery rate×purification degree) relative to the amount when not adding amino acids ([5]; final concentration of 1500 mM): 24.6 times
Purification degree ([5]; glycine 10 mM): 0.92
Purification degree ([5]; glycine 100 mM): 1.44
Purification degree ([5]; glycine 500 mM): 2.20
Purification degree ([5]; glycine 1500 mM): 5.05
Purification degree ([1]; 500 mM): 2.27
Purification degree ([2]; 500 mM): 4.72
Purification degree ([2]; 2000 mM): 8.12
numerical value of the recovery rate×the purification degree compared to the case of not adding any of the amino acids [2]: increased

NCC(=O)NCC(=O)O [(Gly)2, glycylglycine]
Purification degree ([2]; 500 mM): 1.03
numerical value of the recovery rate×the purification degree compared to the case of not adding any of the amino acids [2]: not observed

ACTH partial peptide: partial peptide consisting of 1st to 24th amino acids of ACTH; used labeled with tetramethyl rhodamine (TMR)
recovered amount of peptide (recovery rate×purification degree) relative to the amount when not adding amino acids [4]: 12.2 times
Purification degree [4]: 3.38

CSCCC(N)C(=O)O (racemic) [Met, DL-methionine]
Purification degree ([2]; 255 mM): 2.11
numerical value of the recovery rate×the purification degree compared to the case of not adding any of the amino acids [2]: increased

N[C@@H](CCC(=O)O)C(=O)O [Glutamic acid, glutamic acid]
Purification degree ([1]; 5 mM): 2.16
Purification degree ([1]; 7 mM): 2.77
Purification degree ([1]; 8 mM): 2.34
Purification degree ([1]; 10 mM): 0.83

C-peptide
recovered amount of peptide (recovery rate×purification degree) relative to the amount when not adding amino acids [4]: 3.95 times
Purification degree [4]: 2.23

CC(C)[C@H](N)C(=O)O [Val, L-valine]
Purification degree ([2]; 500 mM): 2.05
numerical value of the recovery rate×the purification degree compared to the case of not adding any of the amino acids [2]: increased

N=C(N)NCCC[C@H](N)C(=O)O [Arg, L-arginine]
aggregation of the protein in blood (protein in blood): did not aggregate
recovery of peptides (protein in blood): could not be recovered
Purification degree ([2]; 500 mM): 0.86
numerical value of the recovery rate×the purification degree compared to the case of not adding any of the amino acids [2]: not observed

N[C@@H](CO)C(=O)O [Ser, L-serine]
Purification degree ([2]; 500 mM): 1.61
numerical value of the recovery rate×the purification degree compared to the case of not adding any of the amino acids [2]: increased

N[C@@H](Cc1ccccc1)C(=O)O [Phe, L-phenylalanine]
Purification degree ([2]; 160 mM): 1.41
numerical value of the recovery rate×the purification degree compared to the case of not adding any of the amino acids [2]: increased

NC(=O)C[C@H](N)C(=O)O [Asn, L-asparagine]
Purification degree ([1]; 150 mM): 2.12
Purification degree ([6]; heating temperature: 130° C.): 2.13
Purification degree ([6]; heating temperature: 140° C.): 2.12
Purification degree ([6]; heating temperature: 150° C.): 2.01
Purification degree ([6]; heating temperature: 160° C.): 2.46
Purification degree ([2]; 150 mM): 1.75
numerical value of the recovery rate×the purification degree compared to the case of not adding any of the amino acids [2]: increased

O=C(O)[C@@H]1CCCN1 [Pro, L(−)-proline]
Purification degree ([2]; 500 mM): 1.3
numerical value of the recovery rate×the purification degree compared to the case of not adding any of the amino acids [2]: increased

Like-named read-outs stand apart in the source and are kept apart here.
